Assay results published in paper PMC6064111.
Results are given in words; binding and its absence hold for the method and conditions named. Binding seen in cells or lysates may run through a third protein. Some entries that bind do so weakly or less than the wild type.

Sequences of proteins named here, by UniProt entry; tags and fusion partners are left off. Residues count along the entry.
UniProt P02543: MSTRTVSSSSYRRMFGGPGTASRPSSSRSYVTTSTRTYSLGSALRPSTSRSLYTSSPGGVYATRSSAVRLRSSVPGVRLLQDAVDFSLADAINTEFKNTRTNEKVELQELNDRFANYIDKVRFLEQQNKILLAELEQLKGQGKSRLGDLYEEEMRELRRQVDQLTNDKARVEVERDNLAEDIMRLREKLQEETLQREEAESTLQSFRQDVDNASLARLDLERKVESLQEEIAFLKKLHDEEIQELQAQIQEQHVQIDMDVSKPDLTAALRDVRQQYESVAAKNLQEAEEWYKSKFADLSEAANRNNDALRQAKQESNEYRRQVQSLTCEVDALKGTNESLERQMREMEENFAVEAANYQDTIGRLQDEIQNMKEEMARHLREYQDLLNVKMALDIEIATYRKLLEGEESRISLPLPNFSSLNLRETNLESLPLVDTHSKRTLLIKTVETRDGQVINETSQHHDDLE
ANXA2-Flag (1–259 aa) (P19620, residues 1-259): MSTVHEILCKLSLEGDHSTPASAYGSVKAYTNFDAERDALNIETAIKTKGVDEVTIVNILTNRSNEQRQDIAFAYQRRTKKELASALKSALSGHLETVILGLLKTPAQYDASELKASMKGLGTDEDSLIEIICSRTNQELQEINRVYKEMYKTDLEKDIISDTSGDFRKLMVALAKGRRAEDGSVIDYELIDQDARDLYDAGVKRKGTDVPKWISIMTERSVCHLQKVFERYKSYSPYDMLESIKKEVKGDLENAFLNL
ANXA2-Flag (1–174 aa) (P19620, residues 1-174): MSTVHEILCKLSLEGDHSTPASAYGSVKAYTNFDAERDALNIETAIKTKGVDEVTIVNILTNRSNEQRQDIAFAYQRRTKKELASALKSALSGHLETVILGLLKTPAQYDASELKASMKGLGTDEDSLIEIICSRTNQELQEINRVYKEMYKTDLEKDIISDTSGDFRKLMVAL
ANXA2-Flag (1–102 aa) (P19620, residues 1-102): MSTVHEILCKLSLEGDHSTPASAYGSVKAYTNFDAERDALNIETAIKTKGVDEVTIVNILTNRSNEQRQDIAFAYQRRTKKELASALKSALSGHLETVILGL

Each substance was assayed against vimentin-HA (full-length vimentin, HA-tagged) (UniProt P02543) (assay: co-IP; 293T cells co-transfected with pVIM-HA and pANXA2-Flag or ANXA2 truncation plasmids (8 μg each), lysed at 48 h in 1% Triton X-100; anti-HA or anti-Flag affinity gel 2 h at 4 °C; Western blot for Flag or HA).

Row | binding | Substance
1 | binds | ANXA2-Flag (1–259 aa) (from UniProt P19620 1-259) (domain or fragment)
2 | no binding | ANXA2-Flag (1–102 aa) (from UniProt P19620 1-102) (domain or fragment)
3 | binds | ANXA2-Flag (1–174 aa) (from UniProt P19620 1-174) (domain or fragment)
